PubChem BioAssay AID504784 | Drosophila RNAi Screening Center | 2011
The screen tested about 17,000 reagents; this is a random part of those with a known target gene and a result. 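Each column is one replicate's B-score; the combined score over replicates was not deposited, so single values may mislead.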 Reagents against one gene are numbered here. A plus sign joins genes that one reagent is predicted to hit.

- Purpose: 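Fly genes whose silencing alters how much lipid cells keep in droplets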 (primary screen)
- Cell system: Drosophila Kc167 embryonic cells
- Reagents: long dsRNA against Drosophila genes, about 250 ng dsRNA per well
- Time to read-out: 4 days
- Challenge: cells fed 400 µM oleic acid bound to BSA
- Detection: 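Microscope images give a droplet-to-nucleus area ratio, taken as log and converted to a screen-wide B-score; higher values mean greater lipid storage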
- Reading the numbers: droplet/nuclear area B-score: higher = more stored lipid (overstorage)

| gene | dsRNA no. | droplet/nuclear area B-score, replicate 1 | droplet/nuclear area B-score, replicate 2 | droplet/nuclear area B-score, replicate 3 |
| --- | --- | --- | --- | --- |
| Gr5a | 1 | -1.16 | 0.249 | – |
| Slc25A46b | 1 | 0.112 | -0.0959 | – |
| CG32053 | 1 | 0.161 | -0.106 | – |
| CG14613 | 1 | 0.718 | -0.43 | – |
| CR18228 | 1 | 0.398 | -0.587 | – |
| CG5342 | 1 | 0.213 | -1.48 | – |
| Ttc26 | 1 | -0.829 | 0.449 | – |
| lncRNA:CR32690 | 1 | 0.751 | -1.09 | – |
| Edg91 | 1 | -0.527 | 1.07 | – |
| Kdsr | 1 | 0.755 | 0.343 | – |
| CG42741 | 1 | -2.26 | -0.167 | – |
| CG42741 | 2 | 3.09 | -1.33 | – |
| Frl | 1 | 0.451 | 0.196 | – |
| Frl | 2 | -0.519 | -1.71 | – |
| Frl | 3 | -0.705 | 0.455 | 0.599 |
| CNT2 | 1 | -0.0613 | -0.483 | – |
| ItgaPS4 | 1 | -0.118 | -1.41 | – |
| dnk | 1 | 1.42 | 2.82 | – |
| CG9346 | 1 | -2 | -1.54 | – |

6 consecutive records already listed, for reference:
| gene | dsRNA no. | droplet/nuclear area B-score, replicate 1 | droplet/nuclear area B-score, replicate 2 | droplet/nuclear area B-score, replicate 3 |
| --- | --- | --- | --- | --- |
| Ttc26 | 1 | -0.829 | 0.449 | – |
| lncRNA:CR32690 | 1 | 0.751 | -1.09 | – |
| Edg91 | 1 | -0.527 | 1.07 | – |
| Kdsr | 1 | 0.755 | 0.343 | – |
| CG42741 | 1 | -2.26 | -0.167 | – |
| CG42741 | 2 | 3.09 | -1.33 | – |

The list goes on.
| gene | dsRNA no. | droplet/nuclear area B-score, replicate 1 | droplet/nuclear area B-score, replicate 2 | droplet/nuclear area B-score, replicate 3 |
| --- | --- | --- | --- | --- |
| Esp | 1 | 0.563 | -0.31 | – |
| Cluap1 | 1 | 1.88 | 0.0755 | – |
| CG12984 | 1 | 2.22 | 1.54 | – |
| Kaz1-ORFB + Kaz1-ORFA | 1 | -0.267 | -0.468 | – |
| CG32835 (retired record) | 1 | -1.72 | 2.38 | – |
| Ugt37A3 | 1 | -1.11 | 0.78 | – |
| CG33124 | 1 | 1.08 | -0.000375 | – |
| CG4269 | 1 | 0.0708 | -1.78 | – |
| Obp44a | 1 | 1.1 | -0.812 | – |
| Dnaaf4 | 1 | 1.67 | -0.252 | – |
| Zasp52 | 1 | 1.05 | 0.00766 | – |
| Zasp52 | 2 | 0.496 | -1.63 | – |
| nito | 1 | -2.99 | -0.16 | – |
| Mer | 1 | -1.31 | 1.2 | – |
| CG31223 | 1 | 1.64 | 1.03 | – |
| CG8087 | 1 | -1.67 | 2.33 | – |
| CG9568 | 1 | 0.0511 | 2.82 | 1.6 |
| kon | 1 | 0.288 | -0.488 | – |
| CG13992 | 1 | -2.66 | 1.02 | – |
| Coa8 | 1 | -1.28 | 0.168 | – |
| gek | 1 | 0.0206 | -0.248 | – |
| CG34386 | 1 | -0.188 | -0.124 | – |
| CG34386 | 2 | -0.797 | -1.57 | – |
| CG34386 | 3 | 1.47 | 0.0529 | – |
| MAGE | 1 | 1.18 | -0.0633 | – |
| CG12129 | 1 | -0.0303 | 0.996 | – |
| CG32425 | 1 | -1.61 | -2.46 | – |
| CG32425 | 2 | 1.91 | -0.33 | -0.967 |
| CG9782 | 1 | 0.331 | 0.59 | – |
| CG9782 | 2 | -1.64 | 1.18 | – |
| CG33259 | 1 | -0.032 | -0.00769 | – |
| Myc | 1 | 2.31 | 1.14 | – |
| sm | 1 | -0.498 | -0.127 | – |
| sm | 2 | 0.0144 | -0.00845 | – |
| spaw | 1 | 0.06 | 1.09 | – |
| disco | 1 | 1.97 | 3.67 | – |
| CG10911 | 1 | -0.307 | 0.386 | – |
